Source: patent US20190359711A1

Assays:
Lysozyme = assay: condition: tested at 1 µM; response unit ≥100 predicts non-specific binding; SPR (Biacore 8K), antibody passed over immobilized protein
[1] = molecular target: Soy Trypsin Inhibitor (soy); assay: as above

binding (Lysozyme)	binding [1]	Binder
no binding	no binding	TMEB762 (antibody, human IgG4 S228P, kappa, F234A L235A, V domains shown) VH: EVQLLESGGGLVQPGGSLRLSCAASGFTFSSYSMSWVRQAPGKGLEWVSVISGSGGFTDYADSVKGRFTISRDNSKNTLYLQMNSLRAEDTAVYYCARMPLNSPHDYWGQGTLVTVSS VL: DIQMTQSPSSLSASVGDRVTITCRASQGIRNDLGWYQQKPGKAPKLLIYAASSLQSGVPSRFSGSGSGTDFTLTISSLQPEDFATYYCLQDYNYPLTFGGGTKVEIKR
no binding	no binding	CD3B376 (antibody, V domains shown) VH: QVQLQQSGPRLVRPSQTLSLTCAISGDSVFNNNAAWSWIRQSPSRGLEWLGRTYYRSKWLYDYAVSVKSRITVNPDTSRNQFTLQLNSVTPEDTALYYCARGYSSSFDYWGQGTLVTVSS VL: QSALTQPASVSGSPGQSITISCTGTSSNIGTYKFVSWYQQHPDKAPKVLLYEVSKRPSGVSSRFSGSKSGNTASLTISGLQAEDQADYHCVSYAGSGTLLFGGGTKLTVLG

No constants are given. Whether binding was seen depends on the method and setting.
